The values that follow are results of earlier work, collected in patent US20190144909A1, “METHODS OF MODULATING BCKDH” (NESTEC S.A., priority 2016, published 2019).

This data set has as its system branched-chain alpha-keto acid dehydrogenase E1 A subunit (BCKDHA). The conditions noted are these: Table 1b, from Comparative Toxicogenomics Database.

Regarding `CCCCc1oc2ccccc2c1C(=O)c1cc(I)c(OCCN(CC)CC)c(I)c1` [Amiodarone, reference compound], the “Interaction Actions” value was “increases expression”.
